These are yes or no findings as the source states them, for the method shown. In cells and extracts the contact can be indirect. Some results given as binding are weak or reduced against the parent protein; the word gives no strength.
Target: Tomato mosaic virus 30-kDa movement protein (Tomato mosaic virus) (UniProt P69513)
Assay: split reporter; BiFC with N-terminal (nV) and C-terminal (cV) fragments of Venus fused to the C-terminal end of the target proteins (pGWnV3 and pGWcV plasmids); N. benthamiana leaves bombarded, Venus fluorescence seen at 24 h post-bombardment by confocal laser microscopy; MP-nV + MP-cV and 126K-nV + 126K-cV also co-expressed with NtREM-DsRed; some samples stained with aniline blue

Chains of the proteins cited; added tags and fusions are not shown.
UniProt P69513: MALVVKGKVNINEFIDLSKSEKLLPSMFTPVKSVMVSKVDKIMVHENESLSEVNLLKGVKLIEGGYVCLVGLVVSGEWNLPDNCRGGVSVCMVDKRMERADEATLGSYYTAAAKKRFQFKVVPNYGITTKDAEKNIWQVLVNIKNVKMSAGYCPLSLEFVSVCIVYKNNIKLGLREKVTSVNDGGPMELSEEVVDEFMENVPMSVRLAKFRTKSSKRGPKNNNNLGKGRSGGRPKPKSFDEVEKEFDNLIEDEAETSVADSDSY

Q: Which binding does the source give for “Tomato mosaic virus 30-kDa movement protein (from UniProt P69513 1-264)” here?
A: binds

Reference: PMC5962775
